We go through four molecules from paper doi:10.1101/2021.11.10.468008.

Results are given in words; binding and its absence hold for the method and conditions named. Binding can be weak; no strength is given.

Test in all cases: cryo-EM structure
Experiment [1] has as its target T1, Nup85 (X. laevis (endogenous in oocytes)) (UniProt Q68FJ0).
T1 sequence: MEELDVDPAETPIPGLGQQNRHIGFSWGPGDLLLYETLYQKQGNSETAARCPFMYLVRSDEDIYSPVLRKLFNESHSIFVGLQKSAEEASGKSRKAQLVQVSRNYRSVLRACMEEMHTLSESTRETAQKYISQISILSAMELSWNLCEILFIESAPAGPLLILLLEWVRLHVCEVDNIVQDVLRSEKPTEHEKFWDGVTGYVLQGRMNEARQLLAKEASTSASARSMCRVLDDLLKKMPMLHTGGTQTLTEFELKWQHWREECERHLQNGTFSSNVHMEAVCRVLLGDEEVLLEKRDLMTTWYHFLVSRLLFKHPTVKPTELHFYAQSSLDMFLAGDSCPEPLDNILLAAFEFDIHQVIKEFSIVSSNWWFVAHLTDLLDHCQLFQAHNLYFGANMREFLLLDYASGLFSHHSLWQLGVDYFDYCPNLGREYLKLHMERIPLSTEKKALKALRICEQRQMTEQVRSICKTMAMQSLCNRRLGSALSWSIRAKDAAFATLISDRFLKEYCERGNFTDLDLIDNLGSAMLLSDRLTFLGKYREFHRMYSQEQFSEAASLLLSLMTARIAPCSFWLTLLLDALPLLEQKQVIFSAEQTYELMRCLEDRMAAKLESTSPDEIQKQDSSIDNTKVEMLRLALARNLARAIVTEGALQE

For experiment [2], the target named is Nup96 (X. laevis (endogenous in oocytes)).
Experiment [3] deals with Nup107 (X. laevis (endogenous in oocytes)).

As to “Nup205 (X. laevis (endogenous in oocytes))”, the binding result in experiment [1] was “binds”.

“Nup107 (X. laevis (endogenous in oocytes))”: the binding entry in experiment [1] is “binds”.

B1: Nup85 (protein, UniProt Q68FJ0 1-653)
chain: T1 sequence
Take B1: in experiment [2], the binding result was “binds”.

B2: Nup93 (protein, UniProt Q7ZX96 1-820)
chain: MDGEGFGELLQQAEQLAAETEGVTELPHVERNLQEIQQAGERLRSKTMTRTSQESANVKASVLLGSRGLDISHISQRLESLSAATTFEPLEPVKDTDIQGFLKNEKDNALLSAIEESRKRTFVMAEEYHRESMLVEWEQVKQRVLHTLLASGEDALDFTQESETSYISESGAPGRSSLDNVEMAYARQMYMYNEKVVSGHLQPSLVDLCTEAAERLDDKNVSDLWVMVKQMTDVPLIPASDTLKSRCSGQMQMAFVRQALNYLEQSYKNYTLISVFANLQQAQLGGVPGTYNLVRSFLNIRLPTPIPGLQDGEIEGYPVWALIYYCMRCGDLMAAQQVVNRAQHQLGDFKNCFQEYIHNKDRRLSPTTENKLRLHYRRAVRASTDPYKRAVYCIIGRCDVSDNHSEVADKTEDYLWLKLSQVCFEDEANSSPQDRLTLPQFQKQLFEDYGESHFAVNQQPYLYFQVLFLTAQFEAAIAFLFRLERTRCHAVHVALALFELKLLLKSTGQSAQLLSQEPGEPQGVRRLNFIRLLMLYTRKFEPTDPREALQYFYFLRNEKDNQGESMFLRCVSELVIESREFDMLLGKLEKDGSRKPGAIDKFTRDTKTIINKVASVAENKGLFEEAAKLYDLAKNPDKVLELTNKLLSPVVSQISAPQSNRERLKNMALAIAERYKSQGVSAEKSINSTFYLLLDLITFFDEYHAGHIDLSFDVIERLKLVPLSQDSVEERVAAFRNFSDEIRHNLSEILLATMNILFTQYKRLKGSGPTTLGRPQRVQEDKDSVLRSQARALITFAGMIPYRMSGDTNARLVQMEVLMN
Take B2: the binding result in experiment [3] and in experiment [2] was “binds” in each case.
